Measured values as given in the supplement of paper PMC11546906.
Where a name gives a salt, the structure may show the parent alone. The list shows a part of the results. Repeats in this data set agree poorly, so a single value says little.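 A screen tested FDA-approved drugs combined with one-eighth-MIC colistin against a clinical mcr-1-positive, multidrug-resistant E. coli isolate, measuring OD600 at 24 h. Controls were untreated bacteria (growth) and broth alone (blank). An OD600 under 0.2 marked a combination as active.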

Test system: Escherichia coli 42 (mcr-1-positive clinical isolate)
Assay: OD600 after 24 h growth with compound plus colistin (absorbance units (OD600)); higher = more bacterial growth (less inhibition)
Details: first compound 25 µM; colistin concentration 0.5 ug/mL; incubation time 24 h; 37 °C

SMILES: O=C1NC(=O)C(c2ccccc2)(c2ccccc2)N1 [Phenytoin] + CCC(C)CCCC(=O)N[C@@H](CCN)C(=O)N[C@H](C(=O)N[C@@H](CCN)C(=O)N[C@H]1CCNC(=O)[C@H]([C@@H](C)O)NC(=O)[C@H](CCN)NC(=O)[C@H](CCN)NC(=O)[C@H](CC(C)C)NC(=O)[C@@H](CC(C)C)NC(=O)[C@H](CCN)NC1=O)[C@@H](C)O [colistin]
- OD600: inactive: 1.07

SMILES: CN1C(C(=O)Nc2ccccn2)=C(O)c2ccccc2S1(=O)=O [Piroxicam] + CCC(C)CCCC(=O)N[C@@H](CCN)C(=O)N[C@H](C(=O)N[C@@H](CCN)C(=O)N[C@H]1CCNC(=O)[C@H]([C@@H](C)O)NC(=O)[C@H](CCN)NC(=O)[C@H](CCN)NC(=O)[C@H](CC(C)C)NC(=O)[C@@H](CC(C)C)NC(=O)[C@H](CCN)NC1=O)[C@@H](C)O [colistin]
- OD600: inactive: 1.14

SMILES: COC(=O)C1=C(C)NC(C)=C(C(=O)OCC(C)C)C1c1ccccc1[N+](=O)[O-] (stereo not given) [Nisoldipine] + CCC(C)CCCC(=O)N[C@@H](CCN)C(=O)N[C@H](C(=O)N[C@@H](CCN)C(=O)N[C@H]1CCNC(=O)[C@H]([C@@H](C)O)NC(=O)[C@H](CCN)NC(=O)[C@H](CCN)NC(=O)[C@H](CC(C)C)NC(=O)[C@@H](CC(C)C)NC(=O)[C@H](CCN)NC1=O)[C@@H](C)O [colistin]
- OD600: inactive: 1.02

SMILES: COc1cc(Nc2c(C#N)cnc3cc(OCCCN4CCN(C)CC4)c(OC)cc23)c(Cl)cc1Cl [Bosutinib] + CCC(C)CCCC(=O)N[C@@H](CCN)C(=O)N[C@H](C(=O)N[C@@H](CCN)C(=O)N[C@H]1CCNC(=O)[C@H]([C@@H](C)O)NC(=O)[C@H](CCN)NC(=O)[C@H](CCN)NC(=O)[C@H](CC(C)C)NC(=O)[C@@H](CC(C)C)NC(=O)[C@H](CCN)NC1=O)[C@@H](C)O [colistin]
- OD600: active: 0.035

SMILES: c1ccc2[nH]c(-c3cscn3)nc2c1 [Thiabendazole] + CCC(C)CCCC(=O)N[C@@H](CCN)C(=O)N[C@H](C(=O)N[C@@H](CCN)C(=O)N[C@H]1CCNC(=O)[C@H]([C@@H](C)O)NC(=O)[C@H](CCN)NC(=O)[C@H](CCN)NC(=O)[C@H](CC(C)C)NC(=O)[C@@H](CC(C)C)NC(=O)[C@H](CCN)NC1=O)[C@@H](C)O [colistin]
- OD600: inactive: 0.792

SMILES: COc1cc(CNC(=O)CCCC/C=C\C(C)C)ccc1O [(Z)-Capsaicin] + CCC(C)CCCC(=O)N[C@@H](CCN)C(=O)N[C@H](C(=O)N[C@@H](CCN)C(=O)N[C@H]1CCNC(=O)[C@H]([C@@H](C)O)NC(=O)[C@H](CCN)NC(=O)[C@H](CCN)NC(=O)[C@H](CC(C)C)NC(=O)[C@@H](CC(C)C)NC(=O)[C@H](CCN)NC1=O)[C@@H](C)O [colistin]
- OD600: inactive: 0.891

SMILES: CC(=O)/N=c1/sc(S(N)(=O)=O)nn1C [Methazolamide] + CCC(C)CCCC(=O)N[C@@H](CCN)C(=O)N[C@H](C(=O)N[C@@H](CCN)C(=O)N[C@H]1CCNC(=O)[C@H]([C@@H](C)O)NC(=O)[C@H](CCN)NC(=O)[C@H](CCN)NC(=O)[C@H](CC(C)C)NC(=O)[C@@H](CC(C)C)NC(=O)[C@H](CCN)NC1=O)[C@@H](C)O [colistin]
- OD600: inactive: 1.04

SMILES: NCc1ccc(S(N)(=O)=O)cc1 [Mafenide hydrochloride] + CCC(C)CCCC(=O)N[C@@H](CCN)C(=O)N[C@H](C(=O)N[C@@H](CCN)C(=O)N[C@H]1CCNC(=O)[C@H]([C@@H](C)O)NC(=O)[C@H](CCN)NC(=O)[C@H](CCN)NC(=O)[C@H](CC(C)C)NC(=O)[C@@H](CC(C)C)NC(=O)[C@H](CCN)NC1=O)[C@@H](C)O [colistin]
- OD600: inactive: 0.997

SMILES: NC(=O)C(c1ccccc1)(c1ccccc1)[C@@H]1CCN(CCc2ccc3c(c2)CCO3)C1 [Darifenacin hydrobromide] + CCC(C)CCCC(=O)N[C@@H](CCN)C(=O)N[C@H](C(=O)N[C@@H](CCN)C(=O)N[C@H]1CCNC(=O)[C@H]([C@@H](C)O)NC(=O)[C@H](CCN)NC(=O)[C@H](CCN)NC(=O)[C@H](CC(C)C)NC(=O)[C@@H](CC(C)C)NC(=O)[C@H](CCN)NC1=O)[C@@H](C)O [colistin]
- OD600: inactive: 0.994

SMILES: CCCCCNC(=N)N/N=C/c1c[nH]c2ccc(OC)cc12 [Tegaserod maleate] + CCC(C)CCCC(=O)N[C@@H](CCN)C(=O)N[C@H](C(=O)N[C@@H](CCN)C(=O)N[C@H]1CCNC(=O)[C@H]([C@@H](C)O)NC(=O)[C@H](CCN)NC(=O)[C@H](CCN)NC(=O)[C@H](CC(C)C)NC(=O)[C@@H](CC(C)C)NC(=O)[C@H](CCN)NC1=O)[C@@H](C)O [colistin]
- OD600: inactive: 1.02

SMILES: Cc1cc(C#N)cc(C)c1Oc1nc(Nc2ccc(C#N)cc2)nc(N)c1Br [Etravirine] + CCC(C)CCCC(=O)N[C@@H](CCN)C(=O)N[C@H](C(=O)N[C@@H](CCN)C(=O)N[C@H]1CCNC(=O)[C@H]([C@@H](C)O)NC(=O)[C@H](CCN)NC(=O)[C@H](CCN)NC(=O)[C@H](CC(C)C)NC(=O)[C@@H](CC(C)C)NC(=O)[C@H](CCN)NC1=O)[C@@H](C)O [colistin]
- OD600: inactive: 1.03

SMILES: C[N+](C)(C)C[C@H](O)CC(=O)[O-] [L-Carnitine] + CCC(C)CCCC(=O)N[C@@H](CCN)C(=O)N[C@H](C(=O)N[C@@H](CCN)C(=O)N[C@H]1CCNC(=O)[C@H]([C@@H](C)O)NC(=O)[C@H](CCN)NC(=O)[C@H](CCN)NC(=O)[C@H](CC(C)C)NC(=O)[C@@H](CC(C)C)NC(=O)[C@H](CCN)NC1=O)[C@@H](C)O [colistin]
- OD600: inactive: 1.1

SMILES: Cc1ccc(S(=O)(=O)NC(=O)NN2CCCCCC2)cc1 [Tolazamide] + CCC(C)CCCC(=O)N[C@@H](CCN)C(=O)N[C@H](C(=O)N[C@@H](CCN)C(=O)N[C@H]1CCNC(=O)[C@H]([C@@H](C)O)NC(=O)[C@H](CCN)NC(=O)[C@H](CCN)NC(=O)[C@H](CC(C)C)NC(=O)[C@@H](CC(C)C)NC(=O)[C@H](CCN)NC1=O)[C@@H](C)O [colistin]
- OD600: inactive: 1.11

SMILES: COC(=O)[C@H]1[C@H]2C[C@@H]3c4[nH]c5cc(OC)ccc5c4CCN3C[C@H]2C[C@@H](OC(=O)c2cc(OC)c(OC)c(OC)c2)[C@@H]1OC [Reserpine] + CCC(C)CCCC(=O)N[C@@H](CCN)C(=O)N[C@H](C(=O)N[C@@H](CCN)C(=O)N[C@H]1CCNC(=O)[C@H]([C@@H](C)O)NC(=O)[C@H](CCN)NC(=O)[C@H](CCN)NC(=O)[C@H](CC(C)C)NC(=O)[C@@H](CC(C)C)NC(=O)[C@H](CCN)NC1=O)[C@@H](C)O [colistin]
- OD600: inactive: 1.11

SMILES: S=P(N1CC1)(N1CC1)N1CC1 + CCC(C)CCCC(=O)N[C@@H](CCN)C(=O)N[C@H](C(=O)N[C@@H](CCN)C(=O)N[C@H]1CCNC(=O)[C@H]([C@@H](C)O)NC(=O)[C@H](CCN)NC(=O)[C@H](CCN)NC(=O)[C@H](CC(C)C)NC(=O)[C@@H](CC(C)C)NC(=O)[C@H](CCN)NC1=O)[C@@H](C)O [colistin]
- OD600: inactive: 1.21

SMILES: Nc1nc(Cl)nc2c1ncn2[C@@H]1O[C@H](CO)[C@@H](O)[C@@H]1F [Clofarabine] + CCC(C)CCCC(=O)N[C@@H](CCN)C(=O)N[C@H](C(=O)N[C@@H](CCN)C(=O)N[C@H]1CCNC(=O)[C@H]([C@@H](C)O)NC(=O)[C@H](CCN)NC(=O)[C@H](CCN)NC(=O)[C@H](CC(C)C)NC(=O)[C@@H](CC(C)C)NC(=O)[C@H](CCN)NC1=O)[C@@H](C)O [colistin]
- OD600: inactive: 0.795

SMILES: CCN(CC)C(=O)[C@]1(c2ccccc2)C[C@@H]1CN [Dextromilnacipran] + CCC(C)CCCC(=O)N[C@@H](CCN)C(=O)N[C@H](C(=O)N[C@@H](CCN)C(=O)N[C@H]1CCNC(=O)[C@H]([C@@H](C)O)NC(=O)[C@H](CCN)NC(=O)[C@H](CCN)NC(=O)[C@H](CC(C)C)NC(=O)[C@@H](CC(C)C)NC(=O)[C@H](CCN)NC1=O)[C@@H](C)O [colistin]
- OD600: inactive: 1.08

SMILES: CC(=O)N[C@H]1[C@H]([C@H](O)[C@H](O)CO)OC(C(=O)O)=C[C@@H]1NC(=N)N [Zanamivir] + CCC(C)CCCC(=O)N[C@@H](CCN)C(=O)N[C@H](C(=O)N[C@@H](CCN)C(=O)N[C@H]1CCNC(=O)[C@H]([C@@H](C)O)NC(=O)[C@H](CCN)NC(=O)[C@H](CCN)NC(=O)[C@H](CC(C)C)NC(=O)[C@@H](CC(C)C)NC(=O)[C@H](CCN)NC1=O)[C@@H](C)O [colistin]
- OD600: inactive: 1

SMILES: COc1cccc2c1C(=O)c1c(O)c3c(c(O)c1C2=O)C[C@@](O)(C(=O)CO)C[C@@H]3O[C@H]1C[C@H](N)[C@H](O)[C@H](C)O1 [Doxorubicin hydrochloride] + CCC(C)CCCC(=O)N[C@@H](CCN)C(=O)N[C@H](C(=O)N[C@@H](CCN)C(=O)N[C@H]1CCNC(=O)[C@H]([C@@H](C)O)NC(=O)[C@H](CCN)NC(=O)[C@H](CCN)NC(=O)[C@H](CC(C)C)NC(=O)[C@@H](CC(C)C)NC(=O)[C@H](CCN)NC1=O)[C@@H](C)O [colistin]
- OD600: inactive: 0.981

SMILES: CCN(CC)CCNC(=O)c1c(C)[nH]c(/C=C2\C(=O)Nc3ccc(F)cc32)c1C [Sunitinib] + CCC(C)CCCC(=O)N[C@@H](CCN)C(=O)N[C@H](C(=O)N[C@@H](CCN)C(=O)N[C@H]1CCNC(=O)[C@H]([C@@H](C)O)NC(=O)[C@H](CCN)NC(=O)[C@H](CCN)NC(=O)[C@H](CC(C)C)NC(=O)[C@@H](CC(C)C)NC(=O)[C@H](CCN)NC1=O)[C@@H](C)O [colistin]
- OD600: inactive: 0.843
